The test system of this assay is HEK293A TEAD-LUC reporter. The experiment in a line: TEAD-luciferase reporter activity (YAP activation), robust Z score vs plate; higher = stronger YAP/TEAD activation. To be noted: 24 h. (In general: Reporter assays use an easily measured gene product as a stand-in for the process of interest.)

The record followed here is the supplement of paper PMC10735217.

The list shows a part of the results. This data set is noisy: repeats of one test often differ as much as different tests do.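 Human kidney-derived cells stably carry a construct in which eight TEAD-binding elements drive luciferase, measured by luminescence in a drug-repurposing library screen. A hit is any compound whose signal exceeds the plate mean by more than five robust Z scores.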

Turning to `O=C(NCCC1CCCCC1)c1ccc2nccn2c1`, the TEAD-luciferase reporter activity is, setting by setting: (compound concentration: 200 nM) inactive: 1.34; (compound concentration: 10 uM) inactive: 2.19.

Turning to `NC(C(=O)N[C@@H]1C(=O)N2C(C(=O)O)=C(Cl)CS[C@H]12)c1ccccc1` (some centres undefined) [cefaclor], the TEAD-luciferase reporter activity (compound concentration: 2 uM) is inactive: -0.815.

For the compound `NC(C(=O)N[C@@H]1C(=O)N2C(C(=O)O)=C(Cl)CS[C@H]12)c1ccccc1` (some centres undefined) [Cefaclor], the TEAD-luciferase reporter activity is inactive: 0.678 (compound concentration: 200 nM) and inactive: -0.145 (compound concentration: 10 uM).

`COc1ccc(CCN(C)CCCN2CCc3cc(OC)c(OC)cc3C2=O)cc1OC`: the TEAD-luciferase reporter activity (compound concentration: 200 nM) is inactive: 1.83, the TEAD-luciferase reporter activity (compound concentration: 2 uM) is inactive: 1.09 and the TEAD-luciferase reporter activity (compound concentration: 10 uM) was inactive: 1.05.

Take `NC(=O)c1cc(-c2ccncc2)[nH]c1-c1ccccc1`: the TEAD-luciferase reporter activity was inactive: 0.229 (compound concentration: 200 nM), inactive: -1.69 (compound concentration: 2 uM) and inactive: -2.34 (compound concentration: 10 uM).

Regarding `CCCCCC(O)CCCC(=O)[O-]` (centres undefined), the TEAD-luciferase reporter activity is inactive: -2.17 (compound concentration: 200 nM), inactive: 1.08 (compound concentration: 2 uM) and inactive: -1.31 (compound concentration: 10 uM).

`CC(=O)N1CC2(Cc3ccccc3CN2C(C)=O)C1`: the TEAD-luciferase reporter activity (compound concentration: 200 nM) was inactive: -2.56 and the TEAD-luciferase reporter activity (compound concentration: 10 uM) was inactive: 1.56.

For the compound `Cc1ncc([N+](=O)[O-])n1CC(O)CCl` (centres undefined), the TEAD-luciferase reporter activity (compound concentration: 200 nM) was inactive: -0.202 and the TEAD-luciferase reporter activity (compound concentration: 10 uM) is inactive: -1.56.

Consider `Cc1ncc([N+](=O)[O-])n1CC(O)CCl` (centres undefined) [Ornidazole], for which the TEAD-luciferase reporter activity (compound concentration: 2 uM) was inactive: 3.5.

Turning to `CCCCCCCC(=O)NCCCC[C@H](NC(=O)[C@H](Cc1c[nH]c2ccccc12)NC(=O)[C@H](CC(N)=O)NC(=O)[C@@H]1CCC(=O)N1)C(=O)O`, the TEAD-luciferase reporter activity runs as follows: (compound concentration: 200 nM) inactive: -0.624; (compound concentration: 2 uM) inactive: -0.494; (compound concentration: 10 uM) inactive: -0.00661.

Consider `COc1ccc(CCNC[C@H](O)c2ccc(O)cc2)cc1OC` [Denopamine], for which the TEAD-luciferase reporter activity is inactive: -2.24 (compound concentration: 200 nM), inactive: -0.767 (compound concentration: 2 uM) and inactive: 2.24 (compound concentration: 10 uM).

Regarding `CC#C[C@@H](CC(=O)O)c1ccc(OCc2ccc(CN3CCC4(C=Cc5ccccc54)CC3)cc2)cc1`, the TEAD-luciferase reporter activity (compound concentration: 200 nM) was inactive: -1.08, the TEAD-luciferase reporter activity (compound concentration: 2 uM) is inactive: -1.05 and the TEAD-luciferase reporter activity (compound concentration: 10 uM) is inactive: -1.03.

As to `C[C@]12CCC3C(CC=C4CC5(CC[C@@]43CCN)OCCO5)C1CCC21OCCO1` (some centres undefined), the TEAD-luciferase reporter activity is, setting by setting: (compound concentration: 200 nM) inactive: -2.49; (compound concentration: 2 uM) inactive: 1.63; (compound concentration: 10 uM) inactive: 4.76.

With `Cc1c(NCCN2CCCC2)cc(C(=O)CCC(F)(F)F)cc1N1CCN(c2ncnc3[nH]nc(Br)c23)CC1`, the TEAD-luciferase reporter activity (compound concentration: 200 nM) was inactive: -0.684, the TEAD-luciferase reporter activity (compound concentration: 2 uM) is inactive: 2.54 and the TEAD-luciferase reporter activity (compound concentration: 10 uM) was inactive: -0.575.

`O=Cc1ccc(N2CCOCC2)cc1O`: the TEAD-luciferase reporter activity (compound concentration: 200 nM) is inactive: -1.5, the TEAD-luciferase reporter activity (compound concentration: 2 uM) was inactive: -1.2 and the TEAD-luciferase reporter activity (compound concentration: 10 uM) is inactive: 1.08.

In the case of `COc1ccc2c(c1OCc1ccccc1)C[C@H](C(=O)O)N(C(=O)C(c1ccccc1)c1ccccc1)C2`, the TEAD-luciferase reporter activity runs as follows: (compound concentration: 200 nM) inactive: 0.283; (compound concentration: 2 uM) inactive: -1.03; (compound concentration: 10 uM) inactive: -0.626.

`CC/C=C\C/C=C\C/C=C\C/C=C\C/C=C\C/C=C\CCC(=O)OCc1cccnc1`: the TEAD-luciferase reporter activity is inactive: -1.81 (compound concentration: 200 nM), inactive: 2.9 (compound concentration: 2 uM) and inactive: 1.17 (compound concentration: 10 uM).

For `CCOC(=O)[C@H](CCc1ccccc1)N[C@@H](C)C(=O)N(CC(=O)O)C1Cc2ccccc2C1` [delapril], the TEAD-luciferase reporter activity was inactive: -0.446 (compound concentration: 200 nM), inactive: -0.153 (compound concentration: 2 uM) and inactive: -0.344 (compound concentration: 10 uM).

Consider `O=C([O-])C1=CS[C@@H]2/C(=C\c3cn4c(n3)COCC4)C(=O)N12` [BLI 489 Hydrate], for which the TEAD-luciferase reporter activity runs as follows: (compound concentration: 200 nM) inactive: -0.00514; (compound concentration: 2 uM) inactive: 0.459; (compound concentration: 10 uM) inactive: 3.22.

`C[S+](C)CCC(N)C(=O)O` (centres undefined) [Cabagin]: the TEAD-luciferase reporter activity (compound concentration: 200 nM) was inactive: 0.134, the TEAD-luciferase reporter activity (compound concentration: 2 uM) was inactive: -0.632 and the TEAD-luciferase reporter activity (compound concentration: 10 uM) is inactive: -0.611.

Regarding `COC(=O)OCOc1c2n(ccc1=O)N([C@@H]1c3ccccc3SCc3c1ccc(F)c3F)[C@@H]1COCCN1C2=O` [Baloxavir marboxil], the TEAD-luciferase reporter activity (compound concentration: 200 nM) was inactive: -0.82 and the TEAD-luciferase reporter activity (compound concentration: 10 uM) is inactive: 0.749.

As to `O=C(COCC(=O)Nc1ccc(Cl)cc1C(=O)O)Nc1cccc(-c2ccoc2)c1`, the TEAD-luciferase reporter activity (compound concentration: 200 nM) is inactive: -1.79, the TEAD-luciferase reporter activity (compound concentration: 2 uM) is inactive: 1.01 and the TEAD-luciferase reporter activity (compound concentration: 10 uM) is inactive: 0.149.

Take `CC#CCC(C)[C@H](O)/C=C/[C@@H]1[C@H]2C/C(=C/CCCC(=O)O)C[C@H]2C[C@H]1O` (some centres undefined) [iloprost]: the TEAD-luciferase reporter activity (compound concentration: 2 uM) was inactive: -0.278.

In the case of `CC#CCC(C)[C@H](O)/C=C/[C@@H]1[C@H]2C/C(=C/CCCC(=O)O)C[C@H]2C[C@H]1O` (some centres undefined) [Iloprost], the TEAD-luciferase reporter activity was inactive: 2.26 (compound concentration: 200 nM) and inactive: 3.76 (compound concentration: 10 uM).

Take `CCCC[C@H](C)C[C@H](O)/C=C/[C@H]1[C@H](O)CC(=O)[C@@H]1CCCC/C=C/C(=O)O` [limaprost alfadex]: the TEAD-luciferase reporter activity runs as follows: (compound concentration: 200 nM) inactive: -1.47; (compound concentration: 2 uM) inactive: 0.342; (compound concentration: 10 uM) inactive: 1.82.

With `CCN1CCC(c2cc(F)cc(S(C)(=O)=O)c2)CC1`, the TEAD-luciferase reporter activity (compound concentration: 200 nM) is inactive: -0.229, the TEAD-luciferase reporter activity (compound concentration: 2 uM) is inactive: -1.61 and the TEAD-luciferase reporter activity (compound concentration: 10 uM) is inactive: 0.887.

On to `CCCCCCCCCC(=O)N[C@H]1[C@H](Oc2c3cc4cc2Oc2ccc(cc2Cl)[C@@H](O[C@@H]2O[C@H](CO)[C@@H](O)[C@H](O)[C@H]2NC(C)=O)[C@@H]2NC(=O)[C@H](NC(=O)[C@@H]4NC(=O)[C@H]4NC(=O)[C@@H](Cc5ccc(c(Cl)c5)O3)NC(=O)[C@@H]([NH3+])c3ccc(O)c(c3)Oc3cc(O)cc4c3)c3ccc(O)c(c3)-c3c(O[C@H]4O[C@H](CO)[C@@H](O)[C@H](O)[C@@H]4O)cc(O)cc3C(C(=O)O)NC2=O)O[C@H](CO)[C@@H](O)[C@@H]1O` (some centres undefined) [Teicoplanin], for which the TEAD-luciferase reporter activity is inactive: -0.679 (compound concentration: 200 nM), inactive: 1.47 (compound concentration: 2 uM) and inactive: -0.214 (compound concentration: 10 uM).
